These results are taken from doi:10.1101/2021.10.11.463901.

Protein sequences, listed by entry. Tags and fused reporters are not part of them.
UniProt Q86U44, whole entry: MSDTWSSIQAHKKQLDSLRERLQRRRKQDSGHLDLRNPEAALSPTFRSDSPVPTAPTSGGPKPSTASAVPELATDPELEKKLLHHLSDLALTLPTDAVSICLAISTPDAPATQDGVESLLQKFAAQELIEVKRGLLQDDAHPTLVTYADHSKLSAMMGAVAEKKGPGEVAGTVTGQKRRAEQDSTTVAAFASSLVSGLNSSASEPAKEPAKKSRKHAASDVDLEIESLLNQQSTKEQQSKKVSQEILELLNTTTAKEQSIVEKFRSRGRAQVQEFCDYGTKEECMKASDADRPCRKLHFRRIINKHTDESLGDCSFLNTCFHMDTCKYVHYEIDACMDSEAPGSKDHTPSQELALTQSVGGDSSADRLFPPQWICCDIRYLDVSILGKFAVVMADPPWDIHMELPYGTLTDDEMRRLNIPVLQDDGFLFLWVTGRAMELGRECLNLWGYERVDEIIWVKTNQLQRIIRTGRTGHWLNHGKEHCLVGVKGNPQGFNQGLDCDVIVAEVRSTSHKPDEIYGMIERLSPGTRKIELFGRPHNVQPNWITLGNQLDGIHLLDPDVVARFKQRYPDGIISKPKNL

Common to all, as to test: co-IP
In test [1] the target is T1, Flag-tagged SRSF7 (in 293T cells) (UniProt Q16629).
T1 sequence: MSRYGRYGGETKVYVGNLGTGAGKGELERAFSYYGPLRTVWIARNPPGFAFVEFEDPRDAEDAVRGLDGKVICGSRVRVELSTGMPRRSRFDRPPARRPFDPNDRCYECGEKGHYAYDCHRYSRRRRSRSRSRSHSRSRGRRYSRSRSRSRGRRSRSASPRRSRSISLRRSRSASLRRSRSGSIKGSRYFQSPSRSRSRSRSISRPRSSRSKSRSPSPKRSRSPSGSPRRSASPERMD

Test [2] addresses T2, Flag-tagged SRSF7 (serine/arginine-rich splicing factor 7), full length (UniProt Q16629).
T2 sequence: T1 sequence

Test [3] has as its target T2, Flag-tagged SRSF7 (serine/arginine-rich splicing factor 7), full length. The source holds these as a separate data set.
The target of test [4] is T3, Flag-tagged WTAP, full length (UniProt Q15007).
T3 sequence: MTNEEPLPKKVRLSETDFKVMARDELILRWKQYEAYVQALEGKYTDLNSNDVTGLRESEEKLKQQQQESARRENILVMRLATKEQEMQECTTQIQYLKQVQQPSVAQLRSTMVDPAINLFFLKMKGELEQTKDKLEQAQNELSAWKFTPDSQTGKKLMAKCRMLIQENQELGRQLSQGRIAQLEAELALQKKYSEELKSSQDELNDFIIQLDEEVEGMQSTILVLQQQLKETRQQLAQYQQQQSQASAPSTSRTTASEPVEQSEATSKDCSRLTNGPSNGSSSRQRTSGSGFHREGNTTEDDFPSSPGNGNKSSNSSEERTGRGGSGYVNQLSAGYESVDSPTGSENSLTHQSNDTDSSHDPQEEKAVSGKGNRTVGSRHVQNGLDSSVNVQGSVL

Test [5] addresses Flag-tagged METTL3, full length (UniProt Q86U44).

Read-outs that look alike come from different tables or passages of the source. These are yes or no findings as the source states them, for the method shown. In cells and extracts the contact can be indirect. Some binding calls cover weakened binding; strength is not graded here. For some assays here: Sequences can lack the tags named with a protein.

B1: endogenous METTL14 (293T cells) (protein, UniProt Q9HCE5 1-456)
chain: MDSRLQEIRERQKLRRQLLAQQLGAESADSIGAVLNSKDEQREIAETRETCRASYDTSAPNAKRKYLDEGETDEDKMEEYKDELEMQQDEENLPYEEEIYKDSSTFLKGTQSLNPHNDYCQHFVDTGHRPQNFIRDVGLADRFEEYPKLRELIRLKDELIAKSNTPPMYLQADIEAFDIRELTPKFDVILLEPPLEEYYRETGITANEKCWTWDDIMKLEIDEIAAPRSFIFLWCGSGEGLDLGRVCLRKWGYRRCEDICWIKTNKNNPGKTKTLDPKAVFQRTKEHCLMGIKGTVKRSTDGDFIHANVDIDLIITEEPEIGNIEKPVEIFHIIEHFCLGRRRLHLFGRDSTIRPGWLTVGPTLTNSNYNAETYASYFSAPNSYLTGCTEEIERLRPKSPPPKSKSDRGGGAPRGGGRGGTSAGRGRERNRSNFRGERGGFRGGRGGAHRGGFPPR
With B1, the binding result in test [1] was “binds”.

B2: endogenous METTL14 (U87MG cells) (protein, UniProt Q9HCE5 1-456)
chain: B1 chain
With B2, the binding entry in test [2] and in test [3] was “binds” throughout.

B3: endogenous SRSF7 (U87MG cells) (protein, UniProt Q16629 1-238)
chain: T1 sequence
Turning to B3, the binding entry in test [4] and in test [5] was “binds” throughout.
